PubChem BioAssay AID1224830 – NIAID – 2016
Screen: 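Host factors that control LPS-induced TNF expression in human macrophages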 (primary screen). Cells: human THP-1 monocytic leukaemia cells, TNF dual-luciferase reporter clone, PMA-differentiated to macrophage-like cells. Reagent: siRNA pool against human genes, 50 nM. Timing: LPS for 4 h, given about 3 days after siRNA transfection. Conditions: bacterial LPS (TLR4 ligand), 10 ng/ml. Detection: 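TNF firefly reporter luminescence divided by renilla, normalised to the plate median, then turned into a robust z-score for each replicate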. Scale: TNF reporter robust z-score: higher = stronger TNF reporter response to LPS. Call rule: 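Each well counts as active if its z-score is over 2.8 or under -1.5; controls are left without a call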.
Shown is an unselected part of about 18,000 reagents. Of all reagents, about 2,900 (16%) are marked active. 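Calls are made per well; low scores hint the gene aids the LPS response, high scores that it dampens it.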 Repeated entries: four replicate wells of each siRNA pool.

Target gene | TNF reporter robust z-score | call
MED6 | -0.45 | inactive
MED6 | -0.3 | inactive
MED6 | -0.27 | inactive
MED6 | 0.43 | inactive
CT47A11 | 2.12 | inactive
CT47A11 | 0.62 | inactive
CT47A11 | 1.42 | inactive
CT47A11 | 1.5 | inactive
RNF175 | 0.42 | inactive
RNF175 | 1.61 | inactive
RNF175 | 0.27 | inactive
RNF175 | 0.29 | inactive
CADPS | -0.27 | inactive
CADPS | -0.87 | inactive
CADPS | -1.84 | active
CADPS | -1.05 | inactive
CCDC120 | -1.15 | inactive
CCDC120 | -1.22 | inactive
CCDC120 | -1.16 | inactive
CCDC120 | -1.09 | inactive
DLX2 | -1.14 | inactive
DLX2 | -0.91 | inactive
DLX2 | -0.92 | inactive
DLX2 | -0.48 | inactive
SWT1 | 0.64 | inactive
SWT1 | 0.11 | inactive
SWT1 | -0.68 | inactive
SWT1 | -0.37 | inactive
RAB39A | 0.85 | inactive
RAB39A | 0.16 | inactive
RAB39A | 0.05 | inactive
RAB39A | 0.71 | inactive
SLC17A6 | -1.27 | inactive
SLC17A6 | -0.76 | inactive
SLC17A6 | -0.58 | inactive
SLC17A6 | -1.09 | inactive
PAPLN | -0.21 | inactive
PAPLN | 0.35 | inactive
PAPLN | -0.59 | inactive
PAPLN | 0.79 | inactive
PRR14L | -0.19 | inactive
PRR14L | 0.59 | inactive
PRR14L | -0.67 | inactive
PRR14L | 1.82 | inactive
SPATA6 | 2.25 | inactive
SPATA6 | 2.04 | inactive
SPATA6 | 0.06 | inactive
SPATA6 | 1.08 | inactive
HLTF | -0.47 | inactive
HLTF | 0.46 | inactive
HLTF | -0.71 | inactive
HLTF | 2.36 | inactive
COX7A2L | 1.73 | inactive
COX7A2L | 0.61 | inactive
COX7A2L | 0.82 | inactive
COX7A2L | 0.46 | inactive
CHKB | -1.33 | inactive
CHKB | -0.04 | inactive
CHKB | 0.03 | inactive
CHKB | 0.61 | inactive
ATP5F1B | -0.48 | inactive
ATP5F1B | -0.1 | inactive
ATP5F1B | -0.56 | inactive
ATP5F1B | 0.18 | inactive
WASH5P | -0.72 | inactive
WASH5P | 0.02 | inactive
WASH5P | -1.27 | inactive
WASH5P | 0.65 | inactive
KCTD14 | 0.25 | inactive
KCTD14 | -0.79 | inactive
KCTD14 | 0.36 | inactive
KCTD14 | -0.21 | inactive
KATNA1 | 0.67 | inactive
KATNA1 | -0.57 | inactive
KATNA1 | -0.98 | inactive
KATNA1 | 1.84 | inactive
ZNF81 | 2.09 | inactive
ZNF81 | 0.36 | inactive
ZNF81 | -1.51 | active
ZNF81 | 0 | inactive
OXER1 | 1.8 | inactive
OXER1 | 1.77 | inactive
OXER1 | 1.41 | inactive
OXER1 | 1.5 | inactive
TMEM74B | -0.46 | inactive
TMEM74B | 0.32 | inactive
TMEM74B | -0.39 | inactive
TMEM74B | 0 | inactive
ASPSCR1 | 1.39 | inactive
ASPSCR1 | -0.78 | inactive
ASPSCR1 | 1 | inactive
ASPSCR1 | 0.37 | inactive
FBXO48 | -0.55 | inactive
FBXO48 | -0.26 | inactive
FBXO48 | -1.7 | active
FBXO48 | -0.57 | inactive
ANTKMT | 1.73 | inactive
ANTKMT | 4.65 | active
ANTKMT | 3.25 | active
ANTKMT | 1.55 | inactive
KCNA1 | 0.67 | inactive
KCNA1 | -0.18 | inactive
KCNA1 | -1.21 | inactive
KCNA1 | -0.65 | inactive
GIMAP8 | -1.88 | active
GIMAP8 | -1.98 | active
GIMAP8 | -1.45 | inactive
GIMAP8 | -1.21 | inactive
CLEC11A | 0.55 | inactive
CLEC11A | -0.64 | inactive
CLEC11A | 0.08 | inactive
CLEC11A | 0.34 | inactive
FNDC8 | -0.51 | inactive
FNDC8 | -0.08 | inactive
FNDC8 | -1.32 | inactive
FNDC8 | -0.58 | inactive
CYP2E1 | 0.36 | inactive
CYP2E1 | 0.72 | inactive
CYP2E1 | 0.16 | inactive
CYP2E1 | 0.24 | inactive
ENOPH1 | 0.92 | inactive
ENOPH1 | 1.26 | inactive
ENOPH1 | -0.45 | inactive
ENOPH1 | 0.3 | inactive
CATSPER2 | -0.51 | inactive
CATSPER2 | -0.94 | inactive
CATSPER2 | -1.22 | inactive
CATSPER2 | -0.33 | inactive
NDUFC2 | -1.13 | inactive
NDUFC2 | -0.98 | inactive
NDUFC2 | -0.96 | inactive
NDUFC2 | -0.62 | inactive
TRIM8 | -0.37 | inactive
TRIM8 | -0.15 | inactive
TRIM8 | 0.44 | inactive
TRIM8 | -0.55 | inactive
GPR87 | 3.88 | active
GPR87 | 0.6 | inactive
GPR87 | -0.1 | inactive
GPR87 | 0.26 | inactive
